Laboratory results reported in patent publication EP3861991A1, “COMPOSITION FOR PREVENTING AND TREATING ACUTE AND CHRONIC WOUNDS” (Foodar Advanced Research S.r.l., priority 2020, dated 2021).
At least one structure is not confirmed: it was looked up by name or label, or the drawing left a doubt.

Tested on: HDF cells
Assay: Scratch assay: fibroblast cell migration and wound closure
Type: cell-based, Human
Conditions: 10 µM, single components, Fig. 2
Procedure: Human dermal fibroblasts (HDF) (ATCC, Manassas, VA, USA) were grown in fibroblast basal medium supplemented with fibroblast growth kit-serum free (ATCC). Activation, proliferation and migration of fibroblasts are the primary steps in wound healing, where multiple cell types and other micro environmental factors are involved. Scratch assay is a widely applied In vitro technique for understanding the wound healing capabilities of medicinally important compounds. HDF cells were seeded in 6-well plates and were cultured overnight. Cells were then washed with Delbucco's Phosphate Buffered Saline (DPBS) and a scratch was made with a sterile 200µL tip. The detached cells and other cellular debris were removed by washing the cells with DPBS. The cells were treated with 10 µM of AND (source of Example 1), HYX (source of Example 1), or AND + HYX (1/1 ratio, same sources) and incubated for 24 h. Untreated cells were negative control. […] The experiments were performed in triplicate (n = 3). The width of the scratch and wound closure at different time intervals (0, 12, 24 and 48hrs) was analyzed by Image J software.

OCCc1ccc(O)c(O)c1 [HYX, Hydroxytyrosol]
percentage of cell migration (in words, relative to the AND+HYX combination): well lower
